Drawing on PMC7449928, this text covers binding for two substances.

Chains of the proteins cited; added tags and fusions are not shown.
UniProt P46937: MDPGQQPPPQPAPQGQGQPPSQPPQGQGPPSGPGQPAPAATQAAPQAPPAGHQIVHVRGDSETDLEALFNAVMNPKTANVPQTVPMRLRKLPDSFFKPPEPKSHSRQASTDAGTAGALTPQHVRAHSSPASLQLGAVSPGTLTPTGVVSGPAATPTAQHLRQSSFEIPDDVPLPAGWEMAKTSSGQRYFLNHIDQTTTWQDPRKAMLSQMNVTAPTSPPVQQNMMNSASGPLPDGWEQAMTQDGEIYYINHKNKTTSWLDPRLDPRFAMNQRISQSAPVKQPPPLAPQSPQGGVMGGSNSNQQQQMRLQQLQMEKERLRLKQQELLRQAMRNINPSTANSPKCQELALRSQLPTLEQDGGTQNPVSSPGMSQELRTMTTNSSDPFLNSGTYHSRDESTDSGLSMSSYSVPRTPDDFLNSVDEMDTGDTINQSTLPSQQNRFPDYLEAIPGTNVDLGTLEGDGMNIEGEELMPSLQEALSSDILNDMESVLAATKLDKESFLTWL
UniProt O60260: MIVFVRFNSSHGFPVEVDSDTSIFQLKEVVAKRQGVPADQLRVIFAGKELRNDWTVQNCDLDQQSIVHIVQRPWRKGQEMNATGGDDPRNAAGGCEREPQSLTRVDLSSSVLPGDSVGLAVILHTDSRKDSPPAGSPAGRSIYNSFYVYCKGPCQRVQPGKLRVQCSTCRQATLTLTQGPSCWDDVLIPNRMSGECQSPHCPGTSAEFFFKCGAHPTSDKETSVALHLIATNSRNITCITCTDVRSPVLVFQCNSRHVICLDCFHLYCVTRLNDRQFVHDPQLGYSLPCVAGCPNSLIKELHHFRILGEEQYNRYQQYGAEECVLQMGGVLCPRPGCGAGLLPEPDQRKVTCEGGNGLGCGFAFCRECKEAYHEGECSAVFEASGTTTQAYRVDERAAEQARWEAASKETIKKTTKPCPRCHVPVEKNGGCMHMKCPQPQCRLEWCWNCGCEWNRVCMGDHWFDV

These are yes or no findings as the source states them, for the method shown. In cells and extracts the contact can be indirect. Some binding calls cover weakened binding; strength is not graded here.

One assay concerns the target Myc-tagged wild-type YAP (UniProt P46937). Briefly: co-IP; Flag-tagged wild-type or deletion mutants of PARK2 and Myc-tagged wild-type or deletion mutants of YAP; anti-Flag or anti-Myc agarose beads, washed with PBST three times, western blot.
Assay [1] deals with YAP (yes-associated protein) in ESCC cells (UniProt P46937). Briefly: co-IP; immuno-precipitation from ESCC cells, western blot.
Assay [2] shares this target. Briefly: co-IP; immuno-precipitation after separation of cytoplasm and nucleus with a subcellular protein fractionation kit; Tubulin and Lamin B1 as fraction controls.

As for “Flag-tagged wild-type PARK2 (from UniProt O60260 1-465)”, the binding result with Myc-tagged wild-type YAP is listed as “binds”.

“PARK2 (Parkinson disease protein 2) in ESCC cells (from UniProt O60260 1-465)”: the binding result in assay [1] and in assay [2] was “binds” in each case.
